Experimental findings from PMC6461989 are described below.

This assay concerns the target T1, HAI-2 expressed in A549 cells from a HAI-2.tet.aOn gene upon doxycycline induction (UniProt O43291).
T1 sequence: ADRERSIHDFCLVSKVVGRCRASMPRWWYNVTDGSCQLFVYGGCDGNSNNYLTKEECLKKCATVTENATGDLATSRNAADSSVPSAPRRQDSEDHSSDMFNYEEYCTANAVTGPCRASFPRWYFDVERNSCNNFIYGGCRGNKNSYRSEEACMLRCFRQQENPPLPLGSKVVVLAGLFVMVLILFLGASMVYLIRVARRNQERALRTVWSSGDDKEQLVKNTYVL
Nature of the assay: co-IP; A549 cells with HAI-2.tet.aOn gene, doxycycline-induced; purified human plasminogen or plasmin; HAI-2 pulled down by anti-c-Myc mAb (9E10); immunoblot with anti-PLG and anti-HAI-2 pAbs; only the binder purified.

These are yes or no findings as the source states them, for the method shown. In cells and extracts the contact can be indirect. Binding calls can cover weak binding; strength is not graded here.

Consider human active plasmin (enzyme), for which the binding result is reported as “binds”.

In the case of purified human plasminogen, the binding entry was “binds”.
